Measurements as given in paper doi:10.1101/2024.03.16.585334.
Results are given in words; binding and its absence hold for the method and conditions named.

Protein sequences, listed by entry. Tags and fused reporters are not part of them. Residues count along the entry.
UniProt Q13148: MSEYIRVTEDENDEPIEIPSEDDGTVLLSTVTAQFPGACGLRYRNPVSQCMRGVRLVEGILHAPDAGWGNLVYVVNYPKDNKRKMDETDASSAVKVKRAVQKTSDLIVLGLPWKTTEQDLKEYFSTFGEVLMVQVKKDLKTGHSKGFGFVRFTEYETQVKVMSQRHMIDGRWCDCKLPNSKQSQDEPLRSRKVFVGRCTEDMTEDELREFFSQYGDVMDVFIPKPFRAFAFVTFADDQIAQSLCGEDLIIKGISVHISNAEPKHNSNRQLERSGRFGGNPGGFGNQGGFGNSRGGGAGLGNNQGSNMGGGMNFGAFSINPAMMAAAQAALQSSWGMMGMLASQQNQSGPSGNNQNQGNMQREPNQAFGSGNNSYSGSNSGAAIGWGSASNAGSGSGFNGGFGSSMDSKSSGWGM
UniProt P02769, residues 25-607: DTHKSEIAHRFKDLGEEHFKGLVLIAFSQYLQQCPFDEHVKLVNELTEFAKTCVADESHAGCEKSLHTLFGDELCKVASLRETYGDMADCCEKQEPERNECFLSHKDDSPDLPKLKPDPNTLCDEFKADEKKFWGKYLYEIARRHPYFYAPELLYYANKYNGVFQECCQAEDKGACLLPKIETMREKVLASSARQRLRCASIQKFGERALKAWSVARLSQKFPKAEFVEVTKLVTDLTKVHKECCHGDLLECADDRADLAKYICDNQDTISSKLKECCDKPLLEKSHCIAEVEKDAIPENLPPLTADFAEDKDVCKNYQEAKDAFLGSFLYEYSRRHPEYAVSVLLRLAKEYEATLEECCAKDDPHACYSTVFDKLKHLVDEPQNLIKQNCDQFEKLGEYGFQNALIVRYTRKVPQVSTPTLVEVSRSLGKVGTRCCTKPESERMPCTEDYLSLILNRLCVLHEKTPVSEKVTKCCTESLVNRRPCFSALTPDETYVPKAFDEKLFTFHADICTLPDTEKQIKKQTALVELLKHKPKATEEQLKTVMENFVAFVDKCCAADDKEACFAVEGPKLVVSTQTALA

Molecular target: recombinant full-length wild-type human TDP-43 (residues 1-414), TAMRA-labeled (human) (UniProt Q13148)
Assay: recruitment into phase-separated droplets

binding: no binding
Substance: bovine serum albumin (BSA), FITC-labeled (from UniProt P02769 25-607)
